PubChem BioAssay AID1159584 – Peter MacCallum Cancer Centre – 2016
The deposit covers about 18,000 reagents; this is a part drawn at random. The record does not give: the amount of reagent, the time to read-out.

- Assay: 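Genes whose loss is lethal only together with E-cadherin loss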 (primary screen)
- Cell system: human MCF10A breast epithelial cells, parental and CDH1-null
- Reagent: siRNA against human genes
- Read-out: 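ATP luminescence (CellTiter-Glo) viability per line relative to mean mock wells over all plates, and the ratio of CDH1-null to parental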
- Direction: CDH1-null / parental viability ratio: higher = CDH1-null cells survive relatively better than parental; CDH1-null viability vs mock: higher = more viable CDH1-null cells; parental viability vs mock: higher = more viable parental cells

target gene,CDH1-null / parental viability ratio,CDH1-null viability vs mock (fraction of mock),parental viability vs mock (fraction of mock)
ADGRE2,0.85,0.72,0.85
HYDIN,1.24,0.52,0.42
POMGNT1,1,0.76,0.76
LRP2,0.91,0.82,0.9
PCSK5,1.3,0.86,0.66
CD74,1.04,1.04,1
PTPRG,1.4,1.12,0.8
CHRDL1,1.02,1.06,1.04
SMCP,1.25,0.75,0.6
DNAJA4,1.08,0.96,0.89
CCR6,0.77,0.78,1.01
BAIAP2L1,0.98,0.88,0.9
WDR37,1.26,0.48,0.38
SLC27A2,0.96,0.81,0.84
C19orf25,1.14,0.92,0.81
NAA16,0.95,1.1,1.16
PTX4,1.1,0.75,0.68
OR10J5,0.9,0.72,0.8
PTGDR2,0.75,0.86,1.14
TNNT2,1.05,0.63,0.6
PKIB,0.55,0.44,0.8
COLCA1,1.18,1.13,0.96
UBP1,0.77,0.6,0.78
PSME4,0.96,0.86,0.9
NEK11,1.03,0.91,0.88
RPL3L,0.65,0.31,0.48
STXBP4,0.97,1.01,1.04
GRB14,0.86,0.5,0.58
OLFML1,1.1,1,0.91
GRAMD1B,1.03,1.06,1.03
COL8A1,1.01,0.87,0.86
CCNQ,0.6,0.42,0.7
ALS2CL,0.74,0.54,0.73
CCKBR,1.36,0.9,0.66
ADAM10,1.22,0.78,0.64
ZBTB2,1.38,0.9,0.65
ARHGEF2,0.93,0.8,0.86
SVOPL,1.58,0.38,0.24
MACROH2A2,1.02,0.61,0.6
TIGD3,0.96,0.44,0.46
ZNF48,0.77,0.43,0.56
FOXK1,1.36,1.4,1.03
VEGFA,1.1,1.13,1.03
ACP7,0.81,0.63,0.78
ALDH1L2,0.83,0.82,0.99
SSBP2,1.5,0.84,0.56
RAET1G,1.21,0.41,0.34
ACKR1,1.29,0.76,0.59
CHAF1B,1.03,0.66,0.64
DCD,0.85,0.53,0.62
NDC80,1.38,0.4,0.29
CLEC16A,1.2,1.16,0.97
CYP2D6,0.78,0.68,0.87
PRDX6,0.85,0.84,0.99
STXBP2,1.88,0.62,0.33
CYTH2,0.82,0.76,0.93
CCDC18,0.99,0.96,0.97
IGFBP2,0.9,0.76,0.84
MRPS2,1.35,0.92,0.68
BYSL,1.15,0.78,0.68
DAGLA,0.91,0.84,0.92
DPH1,1.04,0.86,0.83
HCP5,1.21,0.94,0.78
PLA2G6,1.39,1.42,1.02
SPANXC,1.36,0.38,0.28
ZNF609,1.03,0.76,0.74
NSUN4,0.95,0.98,1.03
CHTF18,1.37,1.03,0.75

Copied from above (11 entries):
target gene,CDH1-null / parental viability ratio,CDH1-null viability vs mock (fraction of mock),parental viability vs mock (fraction of mock)
TNNT2,1.05,0.63,0.6
PKIB,0.55,0.44,0.8
COLCA1,1.18,1.13,0.96
UBP1,0.77,0.6,0.78
PSME4,0.96,0.86,0.9
NEK11,1.03,0.91,0.88
RPL3L,0.65,0.31,0.48
STXBP4,0.97,1.01,1.04
GRB14,0.86,0.5,0.58
OLFML1,1.1,1,0.91
GRAMD1B,1.03,1.06,1.03
